# Results taken from article PMC8708666 (International Journal of Molecular Sciences, 2021).
# HELM strings list residues between dots; [ac] is acetyl, [am] amide, other brackets name non-standard units.
# Assay: general procedure: Fmoc solid-phase peptide synthesis; 2-chlorotrityl chloride resin, loading 1.0 mmol/g; DMT/NMM/TosO- with NMM
# Conditions: whole synthesis, HPLC, scale of the general procedure 1.0 mmol (1.0 g resin)
row,Substance,purity (crude or final not stated)
1,PEPTIDE1{D.P.G.F.P.G.M.K.G.K}$$$$V2.0,92%
2,PEPTIDE1{F.K.G.T.K.G.R.D.G.L}$$$$V2.0,92%
3,PEPTIDE1{G.F.Q.G.E.K.G.V.K.G}$$$$V2.0,98%
4,PEPTIDE1{G.P.P.G.S.I.V.K.K.G}$$$$V2.0,95%
5,PEPTIDE1{K.G.A.R.G.D.R.G.S.G}$$$$V2.0,99%
6,PEPTIDE1{L.A.P.G.S.F.K.G.M.K}$$$$V2.0,87%
7,PEPTIDE1{N.K.E.S.G.F.P.G.L.R}$$$$V2.0,95%
8,^21AGEKSYGKPC^30,88%
9,^41CFPEKGARGR^50,80%
10,^81PGLLGPYGPK^90,86%
11,^251GFPKGKKGSK^260,93%
12,^311GPPGQQGKKG^320,90%
13,^471LKGIKGDSGF^480,85%
14,^541KGKKGEPILS^550,85%
15,^641PGQQGLPGSK^650,99%
16,^671PGFPGPKGSR^680,87%
17,^711GFPGPRGEKG^720,84%
18,^721LPGFPGLPGK^730,91%
19,^781PGLKGVHGKP^790,97%
20,^821GIKGKSGLPG^830,99%
21,^841PGKKGTRGKK^850,81%
22,^891LSGPKGEKGS^900,82%
23,^1101IGNIGFPGNK^1110,80%
24,^1211PGIGIGAPGK^1220,95%
25,^1221PGLRGQKGDR^1230,80%
26,^1311KGMRGEPGFM^1320,92%
27,^1451MRVGYTLVKH^1460,80%
28,^1521HYARRNDKSY^1530,82%
29,^1661AGQLHTRVSR^1670,92%
